# Where “and” joins values, the source holds several entries; their conditions need not be identical. Equal values may be shown once. Where a name gives a salt, the structure may show the parent alone. ± gives the standard deviation of the averaged measurements. The list shows a part of the results. Single values of this set are uncertain.
# Test system: Salmonella enterica serovar Typhimurium ST313 D23580
# Assay: normalized bacterial growth (OD600 20 h minus 0 h, interquartile-mean normalized) (fraction of plate interquartile mean); higher = more bacterial growth (less inhibition)
# Details: LPM (pH 5.8, low phosphate, low Mg2+), concentration: 10 µM, temperature: 37 °C
row,Structure (SMILES),normalized bacterial growth
1,O=C(O)[C@H](O)[C@@](O)(Cc1ccc(O)cc1)C(=O)O,0.79
2,"N[C@H](C(=O)O)[C@H]1C[C@@H]1C(=O)O [""(2S,1'S,2'S)-2-(carboxycyclopropyl)glycine""]",1.01
3,COC(=O)C(N)Cc1ccc(Cl)cc1 (racemic) [DL-p-Chlorophenylalanine methyl ester hydrochloride],1.11
4,O=c1c(O)c(-c2ccc(O)c(O)c2)oc2cc(O)cc(O)c12 [Quercetine dihydrate],0.941
5,O=c1c(O)c(-c2ccc(O)c(O)c2)oc2cc(O)cc(O)c12,1.03
6,O=C(O)C1(C(=O)O)CCC1.[NH2-].[NH2-].[Pt+2],1.16
7,O=C(O)C1(C(=O)O)CCC1.[NH2-].[NH2-].[Pt+2] [Carboplatin],0.789
8,CC(C)Cc1ccc(C(C)C(=O)O)cc1 (centres undefined) [()-Ibuprofen],1.16
9,COC1=CC(=O)C=C(OC)C1=O,0.681
10,COc1ccc(C(=O)c2ccccc2O)c(O)c1,0.953
11,COCCc1ccc(OCC(O)CNC(C)C)cc1 (centres undefined),0.588
12,COCCc1ccc(OCC(O)CNC(C)C)cc1 (stereo not drawn) [()-Metoprolol (+)-tartrate],1
13,CCOc1ccc(NC(C)=O)cc1,1.05
14,CN1CCC[C@@H]1CCO[C@](C)(c1ccccc1)c1ccc(Cl)cc1,1
15,CN1CCC[C@@H]1CCO[C@](C)(c1ccccc1)c1ccc(Cl)cc1 [Clemastine fumarate],0.851
16,O=C(c1ccc(OCCCc2c[nH]cn2)cc1)C1CC1 [Ciproxifan hydrochloride],0.478
17,CC(C(=O)O)c1ccc(C(=O)c2cccs2)cc1 (centres undefined) [Suprofen],1.11
18,CCCCC[C@H](O)/C=C/[C@H]1[C@H](O)CC(=O)[C@@H]1CCCCCCC(=O)O,1.06
19,O=C(O)c1cccnc1C(=O)O [Quinolinic acid],1.04
20,O=C(O)c1ccccc1,1.33
21,CCN1CCC[C@H]1CNC(=O)c1c(O)c(Cl)cc(Cl)c1OC [S(+)-Raclopride L-tartrate],1.04

row,Structure (SMILES),normalized bacterial growth
1,CN(CC[C@@H](Oc1ccc(C(F)(F)F)cc1)c1ccccc1)CC(=O)[O-].[Li+],0.83
2,CN[C@@H]1[C@H](O[C@H]2[C@H](O[C@H]3[C@H](O)[C@@H](O)[C@H](NC(=N)N)[C@@H](O)[C@@H]3NC(=N)N)O[C@@H](C)[C@]2(O)CO)O[C@@H](CO)[C@H](O)[C@H]1O,1.06
3,CN[C@@H]1[C@H](O[C@H]2[C@H](O[C@H]3[C@H](O)[C@@H](O)[C@H](NC(=N)N)[C@@H](O)[C@@H]3NC(=N)N)O[C@@H](C)[C@]2(O)CO)O[C@@H](CO)[C@H](O)[C@H]1O [Dihydrostreptomycin sulfate],0.851
4,NCc1ccc(S(N)(=O)=O)cc1,1.09
5,COc1cc2oc3cc(OC)c(OC)c(CC=C(C)C)c3c(=O)c2c(OC)c1CC=C(C)C,0.65
6,CCc1oc2ccccc2c1C(=O)c1cc(Br)c(O)c(Br)c1,1.15
7,CC/C(=C(\c1ccccc1)c1ccc(OCCN(C)C)cc1)c1ccccc1 [Tamoxifen citrate],1.41
8,C#C[C@]1(O)CC[C@H]2[C@@H]3CCC4=C(CCC(=O)C4)[C@H]3CC[C@@]21C,1.18
9,C#C[C@]1(O)CC[C@H]2[C@@H]3CCC4=C(CCC(=O)C4)[C@H]3CC[C@@]21C [Norethynodrel],0.894
10,COc1cc(OC)c(-c2c(OC)cc(OC)cc2OC)c(OC)c1,0.938
11,CC(C)(C)NCC(O)c1cc(O)cc(O)c1 (centres undefined) [Terbutaline hemisulfate],1.24
12,CC(C)(C)NCC(O)c1cc(O)cc(O)c1 (centres undefined),1.01
13,COc1ccc2c(c1)O[C@@H]1COc3cc(OC)c(OC)cc3[C@@H]1C2=O,1.03
14,NS(=O)(=O)c1cc2c(cc1Cl)NC(CC1CCCC1)NS2(=O)=O (centres undefined) [Cyclopenthiazide],1.04
15,CCOC(=O)[N-]c1c[n+](N2CCOCC2)no1 [Molsidomine],0.886 ± 0.027
16,CC[N+](CC)(CC)CCOc1cccc(OCC[N+](CC)(CC)CC)c1OCC[N+](CC)(CC)CC [Gallamine triethiodide],0.867
17,"CC(C)NCC(O)c1ccc(O)c(O)c1 (single isomer, unassigned; (-)) [(-)-Isoproterenol hydrochloride]",1.22
18,O=C1C(O)=C([C@H]2CC[C@H](c3ccc(Cl)cc3)CC2)C(=O)c2ccccc21 [Atovaquone],0.934
19,O=C1C(O)=C([C@H]2CC[C@H](c3ccc(Cl)cc3)CC2)C(=O)c2ccccc21,1.07
20,NCCNS(=O)(=O)c1cccc2c(Cl)cccc12 [A3 hydrochloride],0.959
21,Cc1ccccc1C(OCCN(C)C)c1ccccc1 (centres undefined) [Orphenadrine hydrochloride],0.793

row,Structure (SMILES),normalized bacterial growth
1,Cc1ccccc1C(OCCN(C)C)c1ccccc1 (centres undefined),1.19
2,CC(=O)OC(C)(C)[C@@H]1Cc2cc3ccc(=O)oc3cc2O1,0.935
3,O=C1CCc2ccc(OCCCCN3CCN(c4cccc(Cl)c4Cl)CC3)cc2N1,0.921
4,CN(C)CCOC(c1ccc(Cl)cc1)c1ccccn1 (centres undefined),1.01
5,NC(=O)NC1NC(=O)NC1=O (centres undefined),0.859
6,C[C@@H]1CC[C@@]23CCC4(C)[C@@](C=CC5[C@@]6(C)CCC(=O)C(C)(C)C6CC[C@]54C)(OC2=O)C3[C@H]1C (some centres undefined),0.982
7,CCCCCCCCCCCC1=C(O)C(=O)C=C(O)C1=O,1.08
8,COc1c2ccoc2cc2oc(=O)ccc12,0.951
9,COC(=O)C1=C(C)NC(C)=C(C(=O)OCC(C)C)C1c1ccccc1[N+](=O)[O-] (centres undefined),0.665
10,O=c1cc(-c2ccc(O)cc2)oc2cc(O)ccc12,1.07
11,COC(=O)C1=C(C)NC(C)=C(C(=O)OCCN(C)Cc2ccccc2)C1c1cccc([N+](=O)[O-])c1 (centres undefined) [Nicardipine hydrochloride],0.807
12,Cc1ccccc1CNc1ncnc2c1ncn2[C@@H]1O[C@H](CO)[C@@H](O)[C@H]1O [Metrifudil],0.852
13,CC(C)=CCc1c2c(c3occ(-c4ccc(O)cc4)c(=O)c3c1O)C=CC(C)(C)O2,1.41
14,COC(=O)[C@H]1[C@H]2C[C@@H]3c4[nH]c5cc(OC)ccc5c4CCN3C[C@H]2C[C@@H](OC(=O)/C=C/c2cc(OC)c(OC)c(OC)c2)[C@@H]1OC [Rescinnamin],0.695
15,COc1ccc([C@@H]2OC[C@@H]3[C@H]2CO[C@H]3c2ccc(OC)c(OC)c2)cc1OC,0.883
16,Cc1cnc(C(=O)NCCc2ccc(S(=O)(=O)NC(=O)NC3CCCCC3)cc2)cn1 [Glipizide],1.12
17,C=C1C2CC[C@@]3(C)[C@H](c4ccoc4)OC(=O)C[C@]13O[C@H]1CC(=O)C(C)(C)[C@H](C(O)C(=O)OC)[C@@]21C (some centres undefined),0.968
18,CCc1ccc2c(O)c3c(cc2c1C(=O)OC)C(=O)c1c(O)ccc(O)c1C3=O,0.869
19,CC(C)NC[C@H](O)COc1cccc2[nH]ccc12 [S(-)-Pindolol],0.924
20,CC(=O)O[C@H]1C[C@@H](OC(C)=O)C(C)(C)[C@@H]2C[C@@H](OC(C)=O)[C@@]3(C)C4=CC(=O)O[C@@H](c5ccoc5)[C@]4(C)CC[C@@H]3[C@@]12C,0.777
21,O=C1[C@H](CC[C@H](O)c2ccc(F)cc2)[C@@H](c2ccc(O)cc2)N1c1ccc(F)cc1,0.695

row,Structure (SMILES),normalized bacterial growth
1,COc1ccccc1N1CCN(CCCCNC(=O)c2ccc3ccccc3c2)CC1,0.672 and 0.606
2,CC(O)(P(=O)(O)O)P(=O)(O)O,0.944
3,CCN(CC)CCOc1ccc(C(=C(Cl)c2ccccc2)c2ccccc2)cc1,1.45
4,CC1(C)CC[C@]2(C(=O)O)CC[C@]3(C)C(=CCC4[C@@]5(C)CC[C@@H](O)C(C)(C)C5CC[C@]43C)C2C1 (some centres undefined),1.15
5,COc1ccc(NC(=O)c2ccc(-c3ccc(-c4noc(C)n4)cc3C)cc2)cc1N1CCN(C)CC1,1.46
6,CN(C)[C@@H]1C(O)=C(C(=O)NCNCCCC[C@H](N)C(=O)O)C(=O)[C@@]2(O)C(O)=C3C(=O)c4c(O)cccc4[C@@](C)(O)[C@H]3C[C@@H]12 [Lymecycline],0.941
7,CCCCNc1ccc(C(=O)OCCN(C)C)cc1 [Tetracaine hydrochloride],1.15
8,COc1ccc2c(c1)CC[C@@H]1[C@@H]2CC[C@]2(C)[C@@H](NCCCCCCN3C(=O)CCC3=O)CC[C@@H]12,0.692
9,CN1CCOC(c2ccccc2)c2ccccc2C1 (centres undefined),0.883
10,CN1CCOC(c2ccccc2)c2ccccc2C1 (centres undefined) [Nefopam hydrochloride],0.95
11,N=C(N)NCCCCN [Agmatine sulfate],1.15
12,CN1CCC(=C2c3ccccc3CCc3sccc32)CC1,1.13
13,O=c1c2ccccc2nc2n1CCc1c-2[nH]c2ccccc12,1.1
14,O=C(/C=C/C=C/c1ccc2c(c1)OCO2)N1CCCCC1,1
15,CCC(=O)OCC(=O)[C@@]1(OC(=O)CC)[C@@H](C)C[C@H]2[C@@H]3CCC4=CC(=O)C=C[C@]4(C)[C@@]3(Cl)[C@@H](O)C[C@@]21C [Beclomethasone dipropionate],0.614
16,CCC(=O)OCC(=O)[C@@]1(OC(=O)CC)[C@@H](C)C[C@H]2[C@@H]3CCC4=CC(=O)C=C[C@]4(C)[C@@]3(Cl)[C@@H](O)C[C@@]21C,0.569
17,COc1ccc(-c2cc(=O)c3c(O)cc(OC)cc3o2)cc1,0.608
18,CC(C)=CCC/C(C)=C/CC/C(C)=C/CC/C(C)=C/CO,0.934
19,Oc1cc2c(c(Cl)c1O)CCNCC2c1ccccc1 (centres undefined) [()-6-Chloro-PB hydrobromide],0.941
20,O=C(O)CCCCC1CCSS1 (stereo not drawn) [()-alpha-Lipoic Acid],0.904
21,COCC(=O)O[C@]1(CCN(C)CCCc2nc3ccccc3[nH]2)CCc2cc(F)ccc2[C@@H]1C(C)C [Mibefradil dihydrochloride],1.29

# Already shown: an excerpt of the list.
row,Structure (SMILES),normalized bacterial growth
8,CC(C)Cc1ccc(C(C)C(=O)O)cc1 (centres undefined) [()-Ibuprofen],1.16
9,COC1=CC(=O)C=C(OC)C1=O,0.681
10,COc1ccc(C(=O)c2ccccc2O)c(O)c1,0.953
11,COCCc1ccc(OCC(O)CNC(C)C)cc1 (centres undefined),0.588

# — the supplement of paper PMC10398353
